The values below come from PMC11784221, “Platelet factor 4-derived C15 peptide broadly inhibits enteroviruses by disrupting viral attachment” (Journal of Virology, 2025).

What all share (assay): co-IP
Assay [1] deals with T1, GFP-C15 (C15 of PF4 fused to GFP).
T1 sequence: QAPLYKKIIKKLLES

Assay [2] deals with EVD68-VP3-Δ155–170-HA (enterovirus D68).
Assay [3] addresses CA6-VP3-Δ155–170-HA (coxsackievirus A6).

No constants are given. Whether binding was seen depends on the method and setting. Binding seen in cells or lysates may run through a third protein. For some of these results: Binding can be weak; no strength is given. Tags and fused reporters may be left off the sequences shown.

For the molecule CA6-VP3-D156A-HA (coxsackievirus A6), the binding entry in assay [1] is reported as “binds”. Still for that read-out and setting: as for EVD68-VP3-D156A-HA (enterovirus D68), the entry is “binds”.

B1: PF4-Myc (wild-type platelet factor 4 with a Myc tag) (protein, UniProt P02776 32-101)
chain: EAEEDGDLQCLCVKTTSQVRPRHITSLEVIKAGPHCPTAQLIATLKNGRKICLDLQAPLYKKIIKKLLES
As for B1, the binding result in assay [2] and in assay [3] was “no binding” in each case.
